The target in the experiment is Δ3–9 dystrophin (internally truncated dystrophin, in-frame deletion of DMD exons 3–9) (human (endogenous in hiPSC-CMs)) (UniProt P11532). The experiment in a line: co-IP; mouse anti-human dystrophin antibody (sc-73592) coupled to Dynabeads M-270 epoxy; lysate of day 48 hiPSC-CMs in extraction buffer (25 mM NaCl), overnight at 4°C; western blot of the IP samples, signal intensity ratio of each protein to dystrophin. (In general: A western blot detects proteins with antibodies after separation by electrophoresis.)

Chains of the proteins cited; added tags and fusions are not shown.
UniProt P17661: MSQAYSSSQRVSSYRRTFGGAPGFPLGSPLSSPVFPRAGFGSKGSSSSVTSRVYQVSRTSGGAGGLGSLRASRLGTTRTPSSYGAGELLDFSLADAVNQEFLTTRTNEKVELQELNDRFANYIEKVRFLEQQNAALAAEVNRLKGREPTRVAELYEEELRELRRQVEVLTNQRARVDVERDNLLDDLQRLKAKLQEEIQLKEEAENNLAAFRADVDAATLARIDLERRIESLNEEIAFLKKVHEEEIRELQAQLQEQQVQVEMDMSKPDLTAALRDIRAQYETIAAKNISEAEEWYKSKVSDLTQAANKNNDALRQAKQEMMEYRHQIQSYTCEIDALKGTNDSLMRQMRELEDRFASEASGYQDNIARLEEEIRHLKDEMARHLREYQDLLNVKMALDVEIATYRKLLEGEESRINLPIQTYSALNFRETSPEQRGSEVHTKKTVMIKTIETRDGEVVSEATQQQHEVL
UniProt Q09666: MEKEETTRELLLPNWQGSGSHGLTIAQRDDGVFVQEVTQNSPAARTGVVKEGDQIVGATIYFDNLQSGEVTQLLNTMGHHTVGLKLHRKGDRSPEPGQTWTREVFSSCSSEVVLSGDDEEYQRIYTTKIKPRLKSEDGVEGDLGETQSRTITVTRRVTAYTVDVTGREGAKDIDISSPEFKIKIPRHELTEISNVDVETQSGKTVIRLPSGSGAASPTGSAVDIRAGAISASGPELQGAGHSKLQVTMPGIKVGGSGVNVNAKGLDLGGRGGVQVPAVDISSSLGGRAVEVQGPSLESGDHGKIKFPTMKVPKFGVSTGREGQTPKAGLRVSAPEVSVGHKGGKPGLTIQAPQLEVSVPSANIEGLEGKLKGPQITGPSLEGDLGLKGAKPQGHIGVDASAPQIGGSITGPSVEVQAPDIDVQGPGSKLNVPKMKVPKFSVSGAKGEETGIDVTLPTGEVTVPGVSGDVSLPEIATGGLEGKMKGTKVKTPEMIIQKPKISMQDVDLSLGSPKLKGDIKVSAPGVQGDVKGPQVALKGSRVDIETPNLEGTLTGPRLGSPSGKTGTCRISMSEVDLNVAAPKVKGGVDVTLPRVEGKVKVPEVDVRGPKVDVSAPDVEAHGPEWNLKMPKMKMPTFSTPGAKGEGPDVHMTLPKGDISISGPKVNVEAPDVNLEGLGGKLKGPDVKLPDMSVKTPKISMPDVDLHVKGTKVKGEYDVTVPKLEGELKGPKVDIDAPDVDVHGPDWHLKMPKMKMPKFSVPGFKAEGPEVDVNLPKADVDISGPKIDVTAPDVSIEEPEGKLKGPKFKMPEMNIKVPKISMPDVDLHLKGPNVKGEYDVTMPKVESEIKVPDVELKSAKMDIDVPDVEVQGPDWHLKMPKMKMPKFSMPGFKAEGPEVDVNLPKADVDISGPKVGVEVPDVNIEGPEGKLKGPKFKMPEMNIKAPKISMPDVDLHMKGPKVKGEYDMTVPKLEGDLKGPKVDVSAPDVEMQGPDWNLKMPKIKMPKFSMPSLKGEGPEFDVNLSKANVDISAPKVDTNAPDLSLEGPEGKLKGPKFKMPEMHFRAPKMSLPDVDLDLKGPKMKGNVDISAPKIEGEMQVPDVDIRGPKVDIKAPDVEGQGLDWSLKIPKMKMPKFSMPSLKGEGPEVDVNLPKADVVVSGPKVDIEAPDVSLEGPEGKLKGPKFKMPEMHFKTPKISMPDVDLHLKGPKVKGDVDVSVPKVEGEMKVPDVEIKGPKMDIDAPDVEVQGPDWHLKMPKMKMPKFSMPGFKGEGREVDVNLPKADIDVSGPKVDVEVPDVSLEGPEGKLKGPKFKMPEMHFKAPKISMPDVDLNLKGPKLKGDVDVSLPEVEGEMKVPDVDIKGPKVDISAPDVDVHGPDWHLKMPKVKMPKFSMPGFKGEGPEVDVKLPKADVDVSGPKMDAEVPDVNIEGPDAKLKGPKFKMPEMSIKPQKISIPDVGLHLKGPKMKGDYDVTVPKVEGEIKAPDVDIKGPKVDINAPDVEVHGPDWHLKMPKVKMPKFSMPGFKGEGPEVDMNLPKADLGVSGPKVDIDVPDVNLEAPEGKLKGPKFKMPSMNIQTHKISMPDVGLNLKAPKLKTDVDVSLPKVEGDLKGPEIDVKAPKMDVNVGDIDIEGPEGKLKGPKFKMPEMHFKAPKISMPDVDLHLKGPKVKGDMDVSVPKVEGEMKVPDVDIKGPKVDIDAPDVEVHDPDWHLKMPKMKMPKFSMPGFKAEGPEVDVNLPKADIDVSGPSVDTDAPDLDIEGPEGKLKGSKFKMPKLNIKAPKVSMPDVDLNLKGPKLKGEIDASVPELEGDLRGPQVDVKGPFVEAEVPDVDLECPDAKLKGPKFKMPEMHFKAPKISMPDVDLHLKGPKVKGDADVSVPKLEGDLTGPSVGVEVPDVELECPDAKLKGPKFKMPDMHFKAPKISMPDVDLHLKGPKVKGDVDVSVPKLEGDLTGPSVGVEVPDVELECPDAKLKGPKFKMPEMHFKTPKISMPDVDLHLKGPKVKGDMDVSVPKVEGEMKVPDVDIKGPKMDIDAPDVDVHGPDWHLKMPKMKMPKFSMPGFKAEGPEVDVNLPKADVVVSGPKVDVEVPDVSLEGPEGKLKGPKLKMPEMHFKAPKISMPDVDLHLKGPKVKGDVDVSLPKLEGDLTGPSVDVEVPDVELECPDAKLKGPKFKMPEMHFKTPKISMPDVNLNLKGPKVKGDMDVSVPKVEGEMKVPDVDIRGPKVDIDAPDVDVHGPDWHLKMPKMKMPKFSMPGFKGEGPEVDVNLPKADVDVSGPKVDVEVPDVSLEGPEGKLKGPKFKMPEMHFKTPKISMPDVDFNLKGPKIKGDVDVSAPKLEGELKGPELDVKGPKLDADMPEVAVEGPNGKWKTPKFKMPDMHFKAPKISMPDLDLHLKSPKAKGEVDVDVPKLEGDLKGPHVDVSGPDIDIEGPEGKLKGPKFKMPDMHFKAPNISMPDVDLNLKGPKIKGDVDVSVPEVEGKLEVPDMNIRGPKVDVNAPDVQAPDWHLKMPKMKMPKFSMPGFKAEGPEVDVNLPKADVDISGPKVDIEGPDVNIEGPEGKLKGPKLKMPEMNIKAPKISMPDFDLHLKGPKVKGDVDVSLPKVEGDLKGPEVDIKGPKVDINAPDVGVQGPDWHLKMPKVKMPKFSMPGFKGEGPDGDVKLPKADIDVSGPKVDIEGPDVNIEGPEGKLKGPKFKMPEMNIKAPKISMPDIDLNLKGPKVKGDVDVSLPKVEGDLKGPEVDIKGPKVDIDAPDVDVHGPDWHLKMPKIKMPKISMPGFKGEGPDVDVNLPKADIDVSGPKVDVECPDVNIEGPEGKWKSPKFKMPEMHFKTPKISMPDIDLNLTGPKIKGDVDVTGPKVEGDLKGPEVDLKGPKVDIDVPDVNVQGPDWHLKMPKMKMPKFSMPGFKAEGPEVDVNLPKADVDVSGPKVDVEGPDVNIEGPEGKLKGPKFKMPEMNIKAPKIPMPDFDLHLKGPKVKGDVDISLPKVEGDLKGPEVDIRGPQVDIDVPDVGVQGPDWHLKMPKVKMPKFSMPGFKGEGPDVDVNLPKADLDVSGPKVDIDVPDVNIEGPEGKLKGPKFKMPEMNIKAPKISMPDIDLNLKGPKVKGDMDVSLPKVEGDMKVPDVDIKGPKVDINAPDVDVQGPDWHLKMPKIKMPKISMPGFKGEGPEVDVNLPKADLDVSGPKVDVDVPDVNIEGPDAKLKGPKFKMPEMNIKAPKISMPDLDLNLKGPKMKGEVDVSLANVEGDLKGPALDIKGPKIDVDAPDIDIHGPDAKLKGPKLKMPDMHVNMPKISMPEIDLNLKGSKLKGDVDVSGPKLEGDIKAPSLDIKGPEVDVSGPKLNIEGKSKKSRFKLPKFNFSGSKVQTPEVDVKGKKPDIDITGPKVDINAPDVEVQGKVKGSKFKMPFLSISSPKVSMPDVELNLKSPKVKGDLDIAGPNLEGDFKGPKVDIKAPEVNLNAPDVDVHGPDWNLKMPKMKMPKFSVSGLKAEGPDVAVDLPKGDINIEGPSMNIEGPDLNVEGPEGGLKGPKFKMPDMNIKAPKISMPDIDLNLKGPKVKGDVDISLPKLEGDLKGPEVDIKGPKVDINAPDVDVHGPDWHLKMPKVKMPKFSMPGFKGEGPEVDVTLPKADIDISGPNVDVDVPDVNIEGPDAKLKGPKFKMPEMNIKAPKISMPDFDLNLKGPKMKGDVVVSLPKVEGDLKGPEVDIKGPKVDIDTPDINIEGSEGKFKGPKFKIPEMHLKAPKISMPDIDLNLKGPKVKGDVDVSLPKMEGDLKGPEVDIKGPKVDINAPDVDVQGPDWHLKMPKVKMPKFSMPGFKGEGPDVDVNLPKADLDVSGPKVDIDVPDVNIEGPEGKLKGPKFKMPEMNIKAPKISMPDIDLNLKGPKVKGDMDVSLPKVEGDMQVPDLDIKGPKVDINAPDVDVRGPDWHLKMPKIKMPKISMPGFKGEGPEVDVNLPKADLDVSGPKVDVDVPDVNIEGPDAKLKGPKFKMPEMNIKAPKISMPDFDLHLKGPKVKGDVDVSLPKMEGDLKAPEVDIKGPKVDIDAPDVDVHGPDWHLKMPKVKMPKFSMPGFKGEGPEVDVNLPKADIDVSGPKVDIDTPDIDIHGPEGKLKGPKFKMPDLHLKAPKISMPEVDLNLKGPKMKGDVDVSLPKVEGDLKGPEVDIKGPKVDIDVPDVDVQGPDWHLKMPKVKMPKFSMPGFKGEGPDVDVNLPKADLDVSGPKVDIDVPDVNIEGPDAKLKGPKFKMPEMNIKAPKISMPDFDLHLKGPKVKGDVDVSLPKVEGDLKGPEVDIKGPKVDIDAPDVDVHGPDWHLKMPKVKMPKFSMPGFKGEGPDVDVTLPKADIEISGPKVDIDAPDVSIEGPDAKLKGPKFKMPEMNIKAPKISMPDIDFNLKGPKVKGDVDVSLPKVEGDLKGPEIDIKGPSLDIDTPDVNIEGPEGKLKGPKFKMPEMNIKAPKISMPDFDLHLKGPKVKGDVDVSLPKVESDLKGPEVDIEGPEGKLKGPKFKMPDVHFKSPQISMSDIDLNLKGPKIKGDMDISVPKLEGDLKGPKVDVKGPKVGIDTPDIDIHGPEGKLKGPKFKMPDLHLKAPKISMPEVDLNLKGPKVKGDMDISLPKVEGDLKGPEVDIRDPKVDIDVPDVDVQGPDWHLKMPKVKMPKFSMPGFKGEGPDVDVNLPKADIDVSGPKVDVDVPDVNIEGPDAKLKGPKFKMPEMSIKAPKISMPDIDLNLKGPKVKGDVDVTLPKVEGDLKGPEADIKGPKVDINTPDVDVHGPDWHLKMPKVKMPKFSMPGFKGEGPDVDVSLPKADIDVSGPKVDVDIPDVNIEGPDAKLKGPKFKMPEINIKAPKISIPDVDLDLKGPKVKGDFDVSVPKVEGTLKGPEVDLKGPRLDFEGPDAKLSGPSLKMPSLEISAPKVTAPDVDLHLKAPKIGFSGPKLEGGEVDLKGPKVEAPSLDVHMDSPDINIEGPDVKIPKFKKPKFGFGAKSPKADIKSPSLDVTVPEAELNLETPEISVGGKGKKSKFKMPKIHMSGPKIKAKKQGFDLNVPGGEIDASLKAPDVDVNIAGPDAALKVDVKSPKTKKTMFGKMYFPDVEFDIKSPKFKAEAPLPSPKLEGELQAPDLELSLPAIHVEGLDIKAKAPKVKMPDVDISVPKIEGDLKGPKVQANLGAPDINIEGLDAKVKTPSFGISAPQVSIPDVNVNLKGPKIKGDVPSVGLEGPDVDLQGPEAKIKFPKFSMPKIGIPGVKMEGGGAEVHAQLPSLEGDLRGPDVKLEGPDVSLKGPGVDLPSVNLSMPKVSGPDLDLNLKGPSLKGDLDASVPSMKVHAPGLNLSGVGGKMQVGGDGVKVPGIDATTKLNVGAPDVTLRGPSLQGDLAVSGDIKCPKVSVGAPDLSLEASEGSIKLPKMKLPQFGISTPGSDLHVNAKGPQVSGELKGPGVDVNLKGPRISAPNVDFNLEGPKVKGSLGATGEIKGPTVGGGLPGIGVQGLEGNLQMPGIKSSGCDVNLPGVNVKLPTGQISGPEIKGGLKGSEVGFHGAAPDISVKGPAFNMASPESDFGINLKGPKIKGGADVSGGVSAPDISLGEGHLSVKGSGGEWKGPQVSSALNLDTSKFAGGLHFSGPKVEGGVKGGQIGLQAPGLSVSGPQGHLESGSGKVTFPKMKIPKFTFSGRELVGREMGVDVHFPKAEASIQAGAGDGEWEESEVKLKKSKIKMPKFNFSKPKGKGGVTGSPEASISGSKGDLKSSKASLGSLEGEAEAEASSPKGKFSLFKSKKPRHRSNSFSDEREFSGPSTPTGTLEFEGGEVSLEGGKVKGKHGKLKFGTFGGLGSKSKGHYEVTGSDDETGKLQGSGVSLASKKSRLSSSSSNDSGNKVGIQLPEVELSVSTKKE

These are yes or no findings as the source states them, for the method shown. In cells and extracts the contact can be indirect. Binding calls can cover weak binding; strength is not graded here.

As for “cardiac troponin T (cTnT) (from UniProt P45379 1-298)”, the binding entry is “binds”.

Regarding desmin (from UniProt P17661 1-470), the binding entry is recorded as “binds”. To Cypher (from UniProt O75112 1-727) belongs “no binding”; to AHNAK1 (from UniProt Q09666 1-5890), “binds”.

B1: crystallin alpha B (CRYAB) (protein, UniProt P02511 1-175)
chain: MDIAIHHPWIRRPFFPFHSPSRLFDQFFGEHLLESDLFPTSTSLSPFYLRPPSFLRAPSWFDTGLSEMRLEKDRFSVNLDVKHFSPEELKVKVLGDVIEVHGKHEERQDEHGFISREFHRKYRIPADVDPLTITSSLSSDGVLTVNGPRKQVSGPERTIPITREEKPAVTAAPKK
On to B1, for which the binding entry is reported as “no binding”.
